# Experimental data: article doi:10.1101/2024.11.26.625523
# Amino acid sequences for entries named in this document (tags omitted).
# UniProt O43707: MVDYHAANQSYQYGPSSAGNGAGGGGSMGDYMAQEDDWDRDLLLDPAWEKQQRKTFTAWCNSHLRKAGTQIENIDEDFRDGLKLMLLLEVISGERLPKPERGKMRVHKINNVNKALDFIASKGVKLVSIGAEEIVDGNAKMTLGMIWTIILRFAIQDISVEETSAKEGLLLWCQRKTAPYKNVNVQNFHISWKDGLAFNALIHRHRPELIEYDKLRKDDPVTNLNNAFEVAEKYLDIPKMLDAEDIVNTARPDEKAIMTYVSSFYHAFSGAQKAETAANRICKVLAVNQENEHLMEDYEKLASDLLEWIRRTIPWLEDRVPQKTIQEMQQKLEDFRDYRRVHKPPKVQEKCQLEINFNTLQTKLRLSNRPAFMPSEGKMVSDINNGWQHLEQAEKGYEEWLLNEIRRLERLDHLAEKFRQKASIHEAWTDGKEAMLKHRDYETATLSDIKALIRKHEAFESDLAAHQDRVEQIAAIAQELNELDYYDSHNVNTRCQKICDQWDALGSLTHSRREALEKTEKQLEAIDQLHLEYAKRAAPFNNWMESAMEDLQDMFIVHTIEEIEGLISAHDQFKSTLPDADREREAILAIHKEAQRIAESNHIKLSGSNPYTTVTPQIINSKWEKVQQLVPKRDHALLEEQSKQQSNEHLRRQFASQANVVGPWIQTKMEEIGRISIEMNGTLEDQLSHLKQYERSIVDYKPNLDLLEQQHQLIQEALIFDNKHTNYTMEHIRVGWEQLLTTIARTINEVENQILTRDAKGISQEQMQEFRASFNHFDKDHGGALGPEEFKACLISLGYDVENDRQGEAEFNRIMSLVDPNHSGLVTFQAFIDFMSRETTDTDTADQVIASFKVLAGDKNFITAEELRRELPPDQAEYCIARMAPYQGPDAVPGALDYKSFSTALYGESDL
# UniProt P35609: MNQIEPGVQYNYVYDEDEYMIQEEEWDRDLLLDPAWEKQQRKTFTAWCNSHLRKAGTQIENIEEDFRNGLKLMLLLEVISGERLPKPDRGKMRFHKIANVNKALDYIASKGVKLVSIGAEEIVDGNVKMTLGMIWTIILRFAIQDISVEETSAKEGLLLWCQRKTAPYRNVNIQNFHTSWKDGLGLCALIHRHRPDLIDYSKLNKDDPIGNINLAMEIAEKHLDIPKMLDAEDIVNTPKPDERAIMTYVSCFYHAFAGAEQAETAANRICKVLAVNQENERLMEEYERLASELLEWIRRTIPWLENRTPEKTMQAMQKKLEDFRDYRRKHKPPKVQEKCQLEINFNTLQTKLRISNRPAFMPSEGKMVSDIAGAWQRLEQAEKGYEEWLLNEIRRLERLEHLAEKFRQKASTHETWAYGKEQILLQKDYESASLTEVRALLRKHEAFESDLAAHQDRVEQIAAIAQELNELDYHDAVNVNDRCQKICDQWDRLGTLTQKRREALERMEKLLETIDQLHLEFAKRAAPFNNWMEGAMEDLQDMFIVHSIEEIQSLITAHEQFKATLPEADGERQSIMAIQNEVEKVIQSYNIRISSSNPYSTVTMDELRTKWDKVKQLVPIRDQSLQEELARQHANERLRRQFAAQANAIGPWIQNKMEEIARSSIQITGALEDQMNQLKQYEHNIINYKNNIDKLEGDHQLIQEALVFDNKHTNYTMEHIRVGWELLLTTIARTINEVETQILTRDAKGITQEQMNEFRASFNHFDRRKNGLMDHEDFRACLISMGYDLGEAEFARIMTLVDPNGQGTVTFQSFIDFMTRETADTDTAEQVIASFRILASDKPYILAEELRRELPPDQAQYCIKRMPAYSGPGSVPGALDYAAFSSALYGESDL
# These are yes or no findings as the source states them, for the method shown. In cells and extracts the contact can be indirect. Some results given as binding are weak or reduced against the parent protein; the word gives no strength.
# Biological target: ACTN4-mEGFP (alpha-actinin 4-mEGFP fusion) (human) (UniProt O43707)
# Experiment: co-IP
substance,measurement,value
endogenous ACTN2 (α-actinin 2) (from UniProt P35609 1-894),binding,binds
